## Library screen at single concentrations

Sequences of proteins named here, by UniProt entry; tags and fusion partners are left off. Residues count along the entry.
UniProt P9WFT3, whole entry: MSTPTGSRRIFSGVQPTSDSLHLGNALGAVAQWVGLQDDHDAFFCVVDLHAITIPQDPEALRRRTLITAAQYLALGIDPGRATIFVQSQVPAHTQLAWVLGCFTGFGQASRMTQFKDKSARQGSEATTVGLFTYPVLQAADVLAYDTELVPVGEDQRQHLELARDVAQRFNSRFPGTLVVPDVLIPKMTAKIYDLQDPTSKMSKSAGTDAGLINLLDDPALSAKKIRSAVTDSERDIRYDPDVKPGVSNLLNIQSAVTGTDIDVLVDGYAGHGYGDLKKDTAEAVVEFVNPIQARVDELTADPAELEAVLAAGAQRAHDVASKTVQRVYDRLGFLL
UniProt P9WNZ1, whole entry: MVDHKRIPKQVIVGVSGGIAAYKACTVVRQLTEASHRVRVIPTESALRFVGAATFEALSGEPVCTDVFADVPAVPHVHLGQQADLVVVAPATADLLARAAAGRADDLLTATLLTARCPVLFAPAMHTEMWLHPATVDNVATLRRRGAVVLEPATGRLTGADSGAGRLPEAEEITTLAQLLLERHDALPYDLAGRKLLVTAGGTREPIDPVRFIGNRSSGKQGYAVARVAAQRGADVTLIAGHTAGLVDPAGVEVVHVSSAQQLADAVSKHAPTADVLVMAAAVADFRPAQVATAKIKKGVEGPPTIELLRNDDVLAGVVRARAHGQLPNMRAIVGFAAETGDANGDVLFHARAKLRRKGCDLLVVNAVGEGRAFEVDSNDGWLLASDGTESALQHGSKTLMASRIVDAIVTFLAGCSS
UniProt A4I591, 1-473: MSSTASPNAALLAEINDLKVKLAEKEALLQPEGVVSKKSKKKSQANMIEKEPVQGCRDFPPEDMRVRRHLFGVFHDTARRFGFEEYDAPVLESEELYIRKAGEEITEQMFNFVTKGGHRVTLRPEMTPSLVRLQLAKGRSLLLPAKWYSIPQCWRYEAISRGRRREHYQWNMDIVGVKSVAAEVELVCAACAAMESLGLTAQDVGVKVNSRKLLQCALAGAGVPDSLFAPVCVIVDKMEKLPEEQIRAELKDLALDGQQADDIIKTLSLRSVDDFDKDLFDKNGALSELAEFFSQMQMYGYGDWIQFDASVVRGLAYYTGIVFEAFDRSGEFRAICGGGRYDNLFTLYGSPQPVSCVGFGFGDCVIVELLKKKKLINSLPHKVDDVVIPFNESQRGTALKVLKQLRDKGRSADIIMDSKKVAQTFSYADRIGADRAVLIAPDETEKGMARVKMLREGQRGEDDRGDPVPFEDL
UniProt I6X8D2, whole entry: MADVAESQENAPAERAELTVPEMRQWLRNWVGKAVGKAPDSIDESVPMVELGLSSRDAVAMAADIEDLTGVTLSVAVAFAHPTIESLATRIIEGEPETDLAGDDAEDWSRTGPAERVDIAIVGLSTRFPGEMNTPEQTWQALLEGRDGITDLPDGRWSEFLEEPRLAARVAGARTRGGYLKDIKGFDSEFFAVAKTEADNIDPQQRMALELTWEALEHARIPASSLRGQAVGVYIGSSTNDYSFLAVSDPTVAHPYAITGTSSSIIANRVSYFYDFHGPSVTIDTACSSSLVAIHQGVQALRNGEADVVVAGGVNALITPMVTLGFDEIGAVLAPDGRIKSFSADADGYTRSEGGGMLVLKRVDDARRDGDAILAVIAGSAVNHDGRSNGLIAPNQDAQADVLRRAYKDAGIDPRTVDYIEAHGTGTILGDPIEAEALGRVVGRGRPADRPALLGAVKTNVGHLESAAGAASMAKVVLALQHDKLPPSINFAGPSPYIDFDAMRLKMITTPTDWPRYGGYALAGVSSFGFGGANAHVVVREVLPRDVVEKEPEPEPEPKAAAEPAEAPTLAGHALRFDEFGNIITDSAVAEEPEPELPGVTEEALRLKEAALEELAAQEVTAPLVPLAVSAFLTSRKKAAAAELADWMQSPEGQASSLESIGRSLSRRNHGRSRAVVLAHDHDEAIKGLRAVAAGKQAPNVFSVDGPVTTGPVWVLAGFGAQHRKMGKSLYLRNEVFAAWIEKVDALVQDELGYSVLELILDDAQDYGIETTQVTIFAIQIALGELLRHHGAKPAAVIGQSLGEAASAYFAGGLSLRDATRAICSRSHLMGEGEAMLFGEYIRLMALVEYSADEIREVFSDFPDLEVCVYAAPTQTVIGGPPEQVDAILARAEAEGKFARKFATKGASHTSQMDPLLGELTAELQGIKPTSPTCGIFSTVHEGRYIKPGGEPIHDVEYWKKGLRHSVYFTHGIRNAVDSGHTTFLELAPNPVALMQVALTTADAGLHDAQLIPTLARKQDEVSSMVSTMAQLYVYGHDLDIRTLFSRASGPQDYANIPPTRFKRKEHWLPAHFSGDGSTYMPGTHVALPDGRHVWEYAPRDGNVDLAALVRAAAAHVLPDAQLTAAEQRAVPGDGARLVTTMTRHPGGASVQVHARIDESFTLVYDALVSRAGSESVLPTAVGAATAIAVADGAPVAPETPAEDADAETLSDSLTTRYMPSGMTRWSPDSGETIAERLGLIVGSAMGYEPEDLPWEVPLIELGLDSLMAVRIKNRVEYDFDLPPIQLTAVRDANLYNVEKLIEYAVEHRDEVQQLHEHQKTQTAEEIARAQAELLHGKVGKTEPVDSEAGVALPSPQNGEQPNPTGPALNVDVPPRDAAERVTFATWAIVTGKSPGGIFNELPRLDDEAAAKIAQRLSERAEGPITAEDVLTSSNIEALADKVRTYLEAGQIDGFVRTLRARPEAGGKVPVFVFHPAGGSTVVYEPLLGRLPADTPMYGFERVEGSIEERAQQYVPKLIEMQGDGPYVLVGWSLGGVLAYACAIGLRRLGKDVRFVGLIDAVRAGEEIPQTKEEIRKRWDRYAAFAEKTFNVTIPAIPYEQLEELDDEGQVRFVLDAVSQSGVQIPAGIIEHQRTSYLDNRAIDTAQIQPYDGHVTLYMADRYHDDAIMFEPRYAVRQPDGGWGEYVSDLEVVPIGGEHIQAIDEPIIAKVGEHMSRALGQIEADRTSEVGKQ

Values are the deposited “Percent Effect”, in %.
How 0% and 100% were set is not recorded. Most values in the screen are low, and negative values occur.
Compounds were drawn at random from those tested, without regard to their results.
A dash means the value is not listed here; it may have been measured.

MtTrpRS: 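Enzyme assay of tryptophanyl-tRNA synthetase; the read-out is not stated. Target: Tryptophan-tRNA ligase, Mycobacterium tuberculosis (UniProt P9WFT3). Concentration: 10 µM. Higher most likely means stronger inhibition; the record gives no direction and few retests gave an IC50. About 65,000 compounds were tested under these conditions; 0.098% (about 64) showed 50% or more at least once.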
CoaBC: 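Enzyme assay of CoaBC with a phosphate dye (Biomol Green) read at 650 nm. Target: Coenzyme A biosynthesis protein CoaBC, Mycobacterium tuberculosis (UniProt P9WNZ1). Concentration: 30 µM. Direction is inferred from only a few compounds that gave an IC50; most scored high, so higher reads as stronger inhibition. Most strong results did not repeat in a second test. About 67,000 compounds were tested under these conditions; 0.06% (about 40) showed 50% or more at least once.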
LiHisRS: 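Enzyme assay of histidyl-tRNA synthetase; the read-out is not stated. Target: Histidine-tRNA ligase, Leishmania infantum (UniProt A4I591). Concentration: 30 µM. Direction is inferred from retests: higher values go with stronger inhibition. The assay is labelled LdHisRS but filed under L. infantum. Size under these conditions: about 69,000 compounds, about 410 of them at 50% or above in at least one test.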
Pks13 thioesterase: 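Enzyme assay of the thioesterase domain of polyketide synthase 13; the read-out is not stated. Target: Polyketide synthase Pks13, Mycobacterium tuberculosis (UniProt I6X8D2). Tested at 30 µM. The record gives no direction; the compounds picked for IC50 retests had high values, so higher reads as stronger inhibition. Size under these conditions: about 67,000 compounds, about 300 of them at 50% or above in at least one test.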

| Compound | MtTrpRS | CoaBC | LiHisRS | Pks13 thioesterase |
|---|---|---|---|---|
| `CC(C)NC(=O)N1CCN(CC2CC2)c2ncccc2C1` | -2.35 | 2.349 | 19 | 4.278 |
| `COc1cccc(OCC2CCCN(C(=O)CCCn3cccn3)C2)c1` (centres unmarked) | 0.7524 | 1.22 | 16 | -0.1252 |
| `COc1ccc(-c2nnsc2C(=O)N2CCOCC2)cc1` | -2.309 | -2.123 | 5.495 | -7.424 |
| `CCC(C)NC(=O)CCc1ccc(OCC(F)(F)F)c(OC)c1` (centres unmarked) | -7.955 | 1.173 | 9.649 | -14.38 |
| `CCC(CNC(=O)C1CC1)(OC)c1ccccc1` (centres unmarked) | 8.587 | -4.017 | -5.217 | -2.06 |
| `COc1cccc(OCC(=O)N2CCCSCC2CN2CCOCC2)c1` (centres unmarked) | 13.45 | 15.01 | 8.696 | -5.881 |
| `CC(C)Cc1cc(C(=O)NC(C)(C)CN2CCCCCC2)on1` | -1.698 | 3.085 | 20.83 | -15.91 |
| `Cn1cccc1C(=O)N1CCC2(CCN(C(=O)c3cccnc3)C2)CC1` | - | 6.914 | 13.64 | -13.31 |
| `COc1ccc(CCN2CCOC(Cn3nc(C)nc3C)C2)cc1` (centres unmarked) | -1.331 | 0.489 | 14.52 | -2.379 |
| `COCCSc1ccc(C(C)NC(=O)Nc2cn[nH]c2)cc1` (centres unmarked) | -4.4 | 4.065 | 19.33 | -42.44 |
| `Cc1cnc(N2CC3(CCN(C(=O)c4cccnc4)C3)C2)nc1` | 1.627 | 4.235 | 11.43 | -23.31 |
| `CN(C(=O)CN1CCC(NC(=O)c2cccs2)CC1)c1ccccc1` | -0.6482 | -1.695 | 16.67 | -3.837 |
| `CN(C)C(=O)C1CCCN1CCCNC(=O)Cc1ccccc1F` (centres unmarked) | -3.399 | 2.658 | 13.25 | 2.713 |
| `Cc1c(C2CC(=O)Nc3c2cnn3C(C)(C)C)cnn1C` (centres unmarked) | 4.326 | 0.5109 | 18.18 | -29.25 |
| `CCOC(=O)c1cnn(-c2cc(Oc3cccc(C)c3)ncn2)c1N` | -0.7897 | -3.353 | 10.71 | -0.3712 |
| `OC1(CN2CCCC2)COCCN(c2ncnc3[nH]cnc23)C1` (centres unmarked) | -3.625 | 4.959 | 17.33 | -26.74 |
| `N#Cc1ccc(Cl)cc1N1CCC(OC2CCOCC2)CC1` | -1.037 | -4.208 | 6 | 20.57 |
| `Cc1ccc(C(=O)N2CCC(c3n[nH]c(C4CC4)n3)CC2)cc1F` | -2.045 | 1.399 | 7.826 | -9.959 |
| `CC(=O)Nc1cccc(OCCNC(=O)N(C)Cc2ccco2)c1` | -0.1059 | 3.914 | 14.29 | -33.42 |
| `CCOCCC(=O)N1Cc2cnc(-c3ccccc3)nc2C1` | -3.271 | 4.073 | 17.65 | -16 |
| `COc1cc(N2C[C@@H]3COC[C@]3(C(=O)NC3CC(F)(F)C3)C2)ncn1` | -0.7752 | 11.63 | 14.04 | - |
| `CN1CCN(C2CCN(Cc3noc(C(C)(C)C)n3)CC2)C1=O` | 2.407 | -6.374 | -5.714 | 0.4055 |
| `CNc1nc(C)c(C(=O)N2CCCCC2CCN2CCOCC2)s1` (centres unmarked) | 3.047 | 9.665 | 15.15 | -20.16 |
| `N[C@H]1CN(S(=O)(=O)N2CCCCCC2)C[C@@H]1c1ccccc1` | -2.02 | -2.297 | 1.613 | 8.443 |
| `COc1ccc(C2(NCc3c(C)nc4c(C)cccn34)CCCC2)cc1` | -1.583 | -4.192 | 12.68 | 13.51 |
| `Cc1noc(C)c1C1CCCN1C(=O)c1cn2ccsc2n1` (centres unmarked) | -3.883 | 1.394 | 8.861 | -27.36 |
| `COC(=O)CNC(=O)C1CCN(S(C)(=O)=O)CC1` | -4.231 | 1.786 | 1.042 | -27.49 |
| `O=C1CC(c2ccc(C(=O)O)cc2)c2ncn(-c3cccnc3)c2N1` (centres unmarked) | 4.329 | 10.06 | 30 | 18.06 |
| `Cc1nccn1CCCNc1ncccc1C#N` | 0.136 | 6.962 | 10.84 | 16.45 |
| `Cc1cc(Cc2ccc(S(=O)(=O)N3CCSCC3)cc2)c(=O)[nH]n1` | -1.607 | 2.81 | 7.792 | -33.64 |
| `CCOCC(=O)N1CCC(c2nccn2Cc2cscn2)CC1` | 0.2174 | 3.498 | 8.8 | -22.44 |
| `CCn1cnnc1CNC(=O)Cc1ccc2c(c1)OCCO2` | -0.8045 | 3.851 | 12.28 | -1.562 |
| `Cc1noc(C)c1-c1n[nH]c2c1CN(S(=O)(=O)c1cccs1)CC2` | 1.888 | 0.1229 | 7.752 | 1.551 |
| `CC1=CC[C@@H]2CN(C(=O)c3ccc(-c4nc[nH]n4)cc3)C[C@@H]2C1` | 1.127 | 9.74 | 14.75 | -31.35 |
| `COc1cc(CN(C)C(=O)NCc2ccccn2)ccc1SC` | 5.651 | 13.51 | 21.21 | - |

Repeated from the top, 4 entries:

{"compound": "CC(C)NC(=O)N1CCN(CC2CC2)c2ncccc2C1", "MtTrpRS": -2.35, "CoaBC": 2.349, "LiHisRS": 19, "Pks13 thioesterase": 4.278}
{"compound": "COc1cccc(OCC2CCCN(C(=O)CCCn3cccn3)C2)c1", "stereo": "centres unmarked", "MtTrpRS": 0.7524, "CoaBC": 1.22, "LiHisRS": 16, "Pks13 thioesterase": -0.1252}
{"compound": "COc1ccc(-c2nnsc2C(=O)N2CCOCC2)cc1", "MtTrpRS": -2.309, "CoaBC": -2.123, "LiHisRS": 5.495, "Pks13 thioesterase": -7.424}
{"compound": "CCC(C)NC(=O)CCc1ccc(OCC(F)(F)F)c(OC)c1", "stereo": "centres unmarked", "MtTrpRS": -7.955, "CoaBC": 1.173, "LiHisRS": 9.649, "Pks13 thioesterase": -14.38}

The values are deposited in ChEMBL (CHEMBL3988442, “University of Dundee, Small-Polar-MMV Screening Library” (2021)).